PMC11558673 (Biomacromolecules, 2024)
Some peptides are written in HELM: one residue between dots, names in brackets for other building blocks, links after the first $.

Test: general procedure: peptide synthesis; Fmoc-NH-SAL-MBHA resin (100–200 mesh); HBTU/OxymaPure (solid phase); COMU/DIPEA (solution branching)
Details: coupling step

PEPTIDE1{E.E.E.E.E.E.F.P.G.V.G.[am]}|PEPTIDE2{F.P.G.V.G.[am]}|PEPTIDE3{F.P.G.V.G.[am]}|PEPTIDE4{F.P.G.V.G.[am]}|PEPTIDE5{F.P.G.V.G.[am]}|PEPTIDE6{F.P.G.V.G.[am]}|PEPTIDE7{F.P.G.V.G.[am]}$PEPTIDE1,PEPTIDE2,1:R3-1:R1|PEPTIDE1,PEPTIDE3,2:R3-1:R1|PEPTIDE1,PEPTIDE4,3:R3-1:R1|PEPTIDE1,PEPTIDE5,4:R3-1:R1|PEPTIDE1,PEPTIDE6,5:R3-1:R1|PEPTIDE1,PEPTIDE7,6:R3-1:R1$$$V2.0
step yield: 37%

PEPTIDE1{E.E.E.E.E.F.P.G.V.G.[am]}|PEPTIDE2{F.P.G.V.G.[am]}|PEPTIDE3{F.P.G.V.G.[am]}|PEPTIDE4{F.P.G.V.G.[am]}|PEPTIDE5{F.P.G.V.G.[am]}|PEPTIDE6{F.P.G.V.G.[am]}$PEPTIDE1,PEPTIDE2,1:R3-1:R1|PEPTIDE1,PEPTIDE3,2:R3-1:R1|PEPTIDE1,PEPTIDE4,3:R3-1:R1|PEPTIDE1,PEPTIDE5,4:R3-1:R1|PEPTIDE1,PEPTIDE6,5:R3-1:R1$$$V2.0
step yield: 58%

PEPTIDE1{E.E.E.E.F.P.G.V.G.[am]}|PEPTIDE2{F.P.G.V.G.[am]}|PEPTIDE3{F.P.G.V.G.[am]}|PEPTIDE4{F.P.G.V.G.[am]}|PEPTIDE5{F.P.G.V.G.[am]}$PEPTIDE1,PEPTIDE2,1:R3-1:R1|PEPTIDE1,PEPTIDE3,2:R3-1:R1|PEPTIDE1,PEPTIDE4,3:R3-1:R1|PEPTIDE1,PEPTIDE5,4:R3-1:R1$$$V2.0
step yield: 57%

PEPTIDE1{[gGlu].[gGlu].[gGlu].[gGlu].F.P.G.V.G.[am]}|PEPTIDE2{F.P.G.V.G.[am]}|PEPTIDE3{F.P.G.V.G.[am]}|PEPTIDE4{F.P.G.V.G.[am]}|PEPTIDE5{F.P.G.V.G.[am]}$PEPTIDE1,PEPTIDE2,1:R3-1:R1|PEPTIDE1,PEPTIDE3,2:R3-1:R1|PEPTIDE1,PEPTIDE4,3:R3-1:R1|PEPTIDE1,PEPTIDE5,4:R3-1:R1$$$V2.0
step yield: 15%

PEPTIDE1{[gGlu].[gGlu].[gGlu].[gGlu].[gGlu].F.P.G.V.G.[am]}|PEPTIDE2{F.P.G.V.G.[am]}|PEPTIDE3{F.P.G.V.G.[am]}|PEPTIDE4{F.P.G.V.G.[am]}|PEPTIDE5{F.P.G.V.G.[am]}|PEPTIDE6{F.P.G.V.G.[am]}$PEPTIDE1,PEPTIDE2,1:R3-1:R1|PEPTIDE1,PEPTIDE3,2:R3-1:R1|PEPTIDE1,PEPTIDE4,3:R3-1:R1|PEPTIDE1,PEPTIDE5,4:R3-1:R1|PEPTIDE1,PEPTIDE6,5:R3-1:R1$$$V2.0
step yield: 13%

PEPTIDE1{[gGlu].[gGlu].[gGlu].[gGlu].[gGlu].[gGlu].F.P.G.V.G.[am]}|PEPTIDE2{F.P.G.V.G.[am]}|PEPTIDE3{F.P.G.V.G.[am]}|PEPTIDE4{F.P.G.V.G.[am]}|PEPTIDE5{F.P.G.V.G.[am]}|PEPTIDE6{F.P.G.V.G.[am]}|PEPTIDE7{F.P.G.V.G.[am]}$PEPTIDE1,PEPTIDE2,1:R3-1:R1|PEPTIDE1,PEPTIDE3,2:R3-1:R1|PEPTIDE1,PEPTIDE4,3:R3-1:R1|PEPTIDE1,PEPTIDE5,4:R3-1:R1|PEPTIDE1,PEPTIDE6,5:R3-1:R1|PEPTIDE1,PEPTIDE7,6:R3-1:R1$$$V2.0
step yield: 8%
